From the supplement of paper PMC11098740
The list shows a part of the results. Repeats are few or missing, and single values can be far off.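 Test system: a mixed pool of 41 HAP1 clones in which 61 cancer-associated proteins carry fluorescent tags inserted into introns, and each clone is identified from its image pattern. Read-outs are compared with DMSO-treated control wells. The BRD4 degrader dBET6 served as the positive control.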

The chains behind the UniProt entries cited, without tags or fusion partners.
UniProt O14980, whole entry: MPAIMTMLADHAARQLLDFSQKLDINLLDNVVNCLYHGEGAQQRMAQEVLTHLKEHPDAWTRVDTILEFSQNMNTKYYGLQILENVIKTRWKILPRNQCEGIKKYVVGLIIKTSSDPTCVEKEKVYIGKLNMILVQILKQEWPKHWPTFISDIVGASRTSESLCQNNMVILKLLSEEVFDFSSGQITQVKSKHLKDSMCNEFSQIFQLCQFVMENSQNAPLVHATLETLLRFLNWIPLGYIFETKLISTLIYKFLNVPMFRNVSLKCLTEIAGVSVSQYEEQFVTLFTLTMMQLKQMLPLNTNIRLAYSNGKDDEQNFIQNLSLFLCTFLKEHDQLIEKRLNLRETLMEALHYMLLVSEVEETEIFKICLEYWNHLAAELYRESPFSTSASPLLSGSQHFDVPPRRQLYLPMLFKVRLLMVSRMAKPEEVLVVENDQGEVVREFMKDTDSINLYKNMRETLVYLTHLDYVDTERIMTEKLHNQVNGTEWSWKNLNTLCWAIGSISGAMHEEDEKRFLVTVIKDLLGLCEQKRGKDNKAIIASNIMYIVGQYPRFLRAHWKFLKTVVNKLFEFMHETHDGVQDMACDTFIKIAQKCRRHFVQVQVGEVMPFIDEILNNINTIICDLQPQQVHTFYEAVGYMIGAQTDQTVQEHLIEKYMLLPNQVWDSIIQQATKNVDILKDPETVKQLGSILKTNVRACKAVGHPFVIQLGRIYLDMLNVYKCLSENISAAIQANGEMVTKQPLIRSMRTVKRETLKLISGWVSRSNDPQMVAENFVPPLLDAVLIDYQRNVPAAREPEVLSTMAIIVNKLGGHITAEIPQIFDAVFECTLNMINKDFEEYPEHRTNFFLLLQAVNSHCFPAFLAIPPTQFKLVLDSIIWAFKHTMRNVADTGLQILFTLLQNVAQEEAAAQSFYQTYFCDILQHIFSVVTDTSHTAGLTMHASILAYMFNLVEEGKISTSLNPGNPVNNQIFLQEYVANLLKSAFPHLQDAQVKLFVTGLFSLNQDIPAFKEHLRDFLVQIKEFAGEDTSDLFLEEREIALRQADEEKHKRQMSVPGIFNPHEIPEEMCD

The compounds below were run against XPO1 (intron 15 mScarlet tag, HAP1) (UniProt O14980) (assay: XPO1 fluorescence intensity change vs DMSO (log2 fold change); higher = more XPO1 protein). Details: 6 h.

| Compound | XPO1 fluorescence intensity change (log2) |
| --- | --- |
| O=C(O)P(=O)(O)O [Foscarnet] (10 µM) | 0.0925 |
| O=C1OCCN1/N=C/c1ccc([N+](=O)[O-])o1 [Furazolidone] (10 µM) | 0.104 |
| Cc1[nH]nc2c1C(c1cc(CO)cc(-c3ccccc3)c1)(C(C)C)C(C#N)=C(N)O2 (stereo not drawn) (10 µM) | 0.206 |
| Cc1ncc([N+](=O)[O-])n1CCO [Metronidazole] (10 µM) | -0.175 |
| CNS(=O)(=O)Cc1ccc2[nH]cc(CCN(C)C)c2c1 [Sumatriptan] (10.0004 µM) | -0.122 |
| CNC(=O)c1cc(Oc2ccc(NC(=O)Nc3ccc(Cl)c(C(F)(F)F)c3)cc2)ccn1 [Sorafenib] (12.21 µM) | 0.0168 |
| Cc1ccsc1C(=CCCN1CCC[C@@H](C(=O)O)C1)c1sccc1C [Tiagabine] (11 µM) | 0.16 |
| NCCNc1ccc(NCCN)c2c1C(=O)c1ccncc1C2=O [Pixantrone] (10 µM) | -0.0284 |
| C[C@@H](Oc1cc(-c2cnn(C3CCNCC3)c2)cnc1N)c1c(Cl)ccc(F)c1Cl [Crizotinib] (20 µM) | 0.0881 |
| S=c1nc[nH]c2nc[nH]c12 [6-Mercaptopurine] (10.0013 µM) | 0.025 |
| Nc1nc(N)c2nc(-c3ccccc3)c(N)nc2n1 [Triamterene] (9.99945 µM) | 0.0341 |
| CO[C@@]12[C@H](COC(N)=O)C3=C(C(=O)C(C)=C(N)C3=O)N1C[C@@H]1N[C@@H]12 [Mitomycin C] (10.00353425 µM) | -0.155 |
| O=C(CCCCCCC(=O)Nc1ccccc1)NO [Vorinostat] (3.889 µM) | -0.0443 |
| NC12CC3CC(CC(C3)C1)C2 [Amantadine] (10 µM) | 0.0428 |
| COc1cc(N)c(Cl)cc1C(=O)NC1CCN(CCCOc2ccc(F)cc2)CC1OC (stereo not drawn) [Cisapride] (10.00071305 µM) | -0.0084 |
| CCC(C)n1ncn(-c2ccc(N3CCN(c4ccc(OCC5COC(Cn6cncn6)(c6ccc(Cl)cc6Cl)O5)cc4)CC3)cc2)c1=O (stereo not drawn) [Itraconazole] (10 µM) | -0.0467 |
| Oc1ncnc2[nH]ncc12 [Allopurinol] (10 µM) | -0.0285 |

| Compound | XPO1 fluorescence intensity change (log2) |
| --- | --- |
| CCn1cc(C(=O)O)c(=O)c2cc(F)c(N3CCNCC3)nc21 [Enoxacin] (10 µM) | 0.0326 |
| C[C@H]1O[C@@H](O[C@H]2[C@@H](O)C[C@H](O[C@H]3[C@@H](O)C[C@H](O[C@H]4CC[C@@]5(C)[C@H](CC[C@@H]6[C@@H]5CC[C@]5(C)[C@@H](C7=CC(=O)OC7)CC[C@]65O)C4)O[C@@H]3C)O[C@@H]2C)C[C@H](O)[C@@H]1O [Digitoxin] (10.0002 µM) | 0.212 |
| CN1CCC(=C2c3ccccc3CCc3cccnc32)CC1 [Azatadine] (17.993 µM) | 0.0365 |
| COc1c(C)c2c(c(O)c1C/C=C(\C)CCC(=O)O)C(=O)OC2 [Mycophenolic Acid] (10 µM) | 0.132 |
| O=C1c2cccc3c2[C@H](CCC3)CN1[C@@H]1CN2CCC1CC2 [Palonosetron] (10 µM) | -0.0906 |
| CCS(=O)(=O)CCn1c([N+](=O)[O-])cnc1C [Tinidazole] (10 µM) | -0.107 |
| C1=N/C2=N/c3ccc(OCCN4CCCC4)c(c3)COC/C=C/COCc3cccc(c3)C(=C1)N2 [Pacritinib] (10 µM) | -0.234 |
| OC(CCCN1CCCCC1)(c1ccccc1)c1ccccc1 [Diphenidol] (9.99988 µM) | 0.0583 |
| NN1CCOC1=O [3-Amino-2-Oxazolidinone] (5.429755364 µM) | 0.191 |
| c1ccc2[nH]c(-c3cscn3)nc2c1 [Thiabendazole] (10 µM) | 0.0559 |
| Cc1ccc(NC(=O)c2ccc(CN3CC[C@H](N(C)C)C3)c(C(F)(F)F)c2)cc1Nc1nccc(-c2cncnc2)n1 [Bafetinib] (10 µM) | 0.0697 |
| C#Cc1cccc(Nc2ncnc3cc(OCCOC)c(OCCOC)cc23)c1 [Erlotinib] (20 µM) | -0.0189 |
| Nc1nc(N)c2nc(CNc3ccc(C(=O)N[C@@H](CCC(=O)O)C(=O)O)cc3)cnc2n1 [Aminopterin] (20 µM) | 0.162 |
| CNNCc1ccc(C(=O)NC(C)C)cc1 [Procarbazine] (20 µM) | 0.334 |
| Cc1ccc(Nc2nccc(N(C)c3ccc4c(C)n(C)nc4c3)n2)cc1S(N)(=O)=O [Pazopanib] (11.455 µM) | -0.0226 |
| O=C(Nc1ccc([N+](=O)[O-])cc1Cl)c1cc(Cl)ccc1O [Niclosamide] (9.99966 µM) | 0.222 |

3 of the compounds above, comma-delimited.
Compound,XPO1 fluorescence intensity change (log2)
NN1CCOC1=O [3-Amino-2-Oxazolidinone] (5.429755364 µM),0.191
c1ccc2[nH]c(-c3cscn3)nc2c1 [Thiabendazole] (10 µM),0.0559
Cc1ccc(NC(=O)c2ccc(CN3CC[C@H](N(C)C)C3)c(C(F)(F)F)c2)cc1Nc1nccc(-c2cncnc2)n1 [Bafetinib] (10 µM),0.0697
